# Cleaved PARP in drug-treated melanoma cells

Source: doi:10.1371/journal.pone.0140310, primary screening data, rounded.

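The test systems are human melanoma cell lines, treated with a pair of drugs for 72 h and then stained and imaged. Values are the share of nuclei positive for cleaved PARP as a percentage of the same share in the DMSO control: 100 is the control level, higher means more apoptosis. Concentrations were fixed for each drug; these are the higher of two levels. No replicate spread is given; individual values may be noisy. Basal and induced levels differ widely between cell lines.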
This is part of the screen, not chosen by result.
An entry leaves out what has no value listed here.

All values are for the listed drug together with CHIR-265 (400 nM): Cn1c(Nc2ccc(C(F)(F)F)cc2)nc2cc(Oc3ccnc(-c4ncc(C(F)(F)F)[nH]4)c3)ccc21

- CC[C@]1(O)C[C@H]2CN(CCc3c([nH]c4ccccc34)[C@@](C(=O)OC)(c3cc4c(cc3OC)N(C=O)[C@H]3[C@@](O)(C(=O)OC)[C@H](OC(C)=O)[C@]5(CC)C=CCN6CC[C@]43[C@@H]65)C2)C1 at 0.5 nM : RPMI-7951: 427; MEL-HO: 63.1; MZ2-MEL: 268; COLO 829: 396; IPC-298: 266; LB2518-MEL: 367; WM1745: 173; SK-MEL-2: 793; A375: 303; RVH-421: 327; COLO 792: 587; MeWo: 172; WM1716: 678; WM451Lu: 1150; LOX IMVI: 137; WM115: 1870; SK-MEL-28: 525; UACC-257: 95.8; IST-MEL1: 199; COLO 800: 147; SK-MEL-30: 445; A2058: 619; A101D: 274; WM3526: 907; UACC-62: 303; WM3619: 246; SK-MEL-5: 652; G-361: 884; C32: 228
- CCCS(=O)(=O)Nc1ccc(F)c(C(=O)c2c[nH]c3ncc(Cl)cc23)c1F at 400 nM : RPMI-7951: 359; MEL-HO: 64.6; MZ2-MEL: 244; COLO 829: 165; IPC-298: 466; LB2518-MEL: 194; WM1745: 162; SK-MEL-2: 344; A375: 68.5; RVH-421: 303; COLO 792: 689; MeWo: 107; WM1716: 123; WM451Lu: 100; LOX IMVI: 35.9; WM115: 466; SK-MEL-28: 392; UACC-257: 93.6; IST-MEL1: 38.7; COLO 800: 68.5; SK-MEL-30: 92.7; A2058: 112; A101D: 114; WM3526: 903; UACC-62: 370; WM3619: 122; SK-MEL-5: 1730; G-361: 801; C32: 541
- CCN(CC)CCCCNc1ncc2cc(-c3cc(OC)cc(OC)c3)c(NC(=O)NC(C)(C)C)nc2n1 at 500 nM : RPMI-7951: 73.8; MEL-HO: 44.5; MZ2-MEL: 96.2; COLO 829: 268; IPC-298: 346; LB2518-MEL: 365; WM1745: 176; SK-MEL-2: 254; A375: 480; RVH-421: 161; COLO 792: 1040; MeWo: 94.3; WM1716: 83.8; WM451Lu: 672; LOX IMVI: 109; 501mel: 137; WM115: 922; SK-MEL-28: 61.0; UACC-257: 48.8; IST-MEL1: 67.7; COLO 800: 292; SK-MEL-30: 96.2; A2058: 247; A101D: 57.1; WM3526: 227; UACC-62: 857; WM3619: 143; SK-MEL-5: 2250; G-361: 434; C32: 422
- C/C(O)=C(\C#N)C(=O)Nc1cc(Br)ccc1Br at 10000 nM : RPMI-7951: 70.9; MEL-HO: 192; MZ2-MEL: 265; COLO 829: 98.8; IPC-298: 164; LB2518-MEL: 393; WM1745: 159; SK-MEL-2: 248; A375: 103; RVH-421: 110; COLO 792: 639; MeWo: 54.0; WM1716: 112; WM451Lu: 230; LOX IMVI: 43.5; 501mel: 297; WM115: 321; SK-MEL-28: 360; UACC-257: 54.9; IST-MEL1: 71.5; COLO 800: 149; SK-MEL-30: 208; A2058: 210; A101D: 145; WM3526: 609; UACC-62: 722; WM3619: 165; SK-MEL-5: 438; G-361: 578; C32: 246
- NC(=O)c1ccc(N(C(N)=O)c2c(F)cccc2F)nc1-c1ccc(F)cc1F at 2000 nM : RPMI-7951: 83.2; MEL-HO: 65.8; MZ2-MEL: 113; COLO 829: 273; IPC-298: 276; LB2518-MEL: 166; WM1745: 148; SK-MEL-2: 275; A375: 302; RVH-421: 73.1; COLO 792: 547; MeWo: 51.8; WM1716: 81.9; WM451Lu: 146; LOX IMVI: 172; WM115: 532; SK-MEL-28: 153; UACC-257: 39.9; IST-MEL1: 292; COLO 800: 44.9; SK-MEL-30: 183; A2058: 149; A101D: 150; WM3526: 237; UACC-62: 303; WM3619: 151; SK-MEL-5: 1380; G-361: 423; C32: 161
- N.N.[Cl][Pt][Cl] at 8000 nM : RPMI-7951: 125; MEL-HO: 155; MZ2-MEL: 226; COLO 829: 95.5; IPC-298: 130; LB2518-MEL: 48.8; WM1745: 108; SK-MEL-2: 105; A375: 194; RVH-421: 60.0; COLO 792: 214; MeWo: 87.0; WM1716: 199; WM451Lu: 77.2; LOX IMVI: 218; WM115: 274; SK-MEL-28: 226; UACC-257: 67.9; IST-MEL1: 392; COLO 800: 77.7; SK-MEL-30: 139; A2058: 91.1; A101D: 19.6; WM3526: 103; UACC-62: 127; WM3619: 124; SK-MEL-5: 103; G-361: 147; C32: 37.7